The values below come from the supplement of paper PMC5949888.

Most values lie at the floor of the assay. Slopes are relative: functional sequences can read slightly below zero.

In this data set the test system is Saccharomyces cerevisiae PS128 hsf1 delta, HSF1(1-493) fusion. The experiment in a line: growth estimate (transactivation domain function in HSF1 fusion, heat-shock survival) (a.u. (slope of normalised read count over time)); higher = stronger growth at 37°C, i.e. more transactivation activity. The settings on record: library: random library.
For ACLGKALHGVILVLRAG, the growth estimate was below -0.25.

Regarding PGPYDPGA, the growth estimate is below -0.25.

With RARRLLQTHIHGHRTWSSFG, the growth estimate is below -0.25.

Take RGPASVARAIEVDRP: the growth estimate is below -0.25.

For the substance FLEPSSDVNTSSGSAT, the growth estimate is below -0.25.

In the case of QVMGVPTSAMRIRLSRWLEP, the growth estimate was below -0.25.

With QQGNTASRRSVSIEH, the growth estimate was below -0.25.

MCYRG: the growth estimate was below -0.25.

Turning to HPGLIFLMHDRLGNERHEHY, the growth estimate is below -0.25.

With LRKVHKHREATGQVSDGVHH, the growth estimate was -0.246.

Consider RGPIV, for which the growth estimate was below -0.25.

For PCSP, the growth estimate was below -0.25.

In the case of LLGFCWGGGMPGIPIVRIKG, the growth estimate was below -0.25.

For the substance KCLGLMLRSPVGLEYTSMLG, the growth estimate was -0.243.

Turning to HGIAEGAMSFNASSNRCWRL, the growth estimate is below -0.25.

As to VGPWLGNPLCHAHAGIAPYA, the growth estimate is below -0.25.

Regarding SLNSRTTGARRSMVVCAASG, the growth estimate was below -0.25.

With GTQCANVPKVLV, the growth estimate was below -0.25.

For RRSLVTYVTRSSKV, the growth estimate is below -0.25.

With IKQSLI, the growth estimate was below -0.25.

Consider HSTRLRPKDGFPCPHKSIQY, for which the growth estimate is below -0.25.

On to GNILRYC, for which the growth estimate was below -0.25.

As for RASCIVPPC, the growth estimate is below -0.25.

As to AVCTAMEVNIPLLLLDEVRV, the growth estimate was below -0.25.

Turning to VIRACTLGSGFAKSTTYWHR, the growth estimate is below -0.25.

Take VIMGLEWSLVFQP: the growth estimate was below -0.25.

For the substance PIH, the growth estimate is below -0.25.

For NLPECRLTGLSSRYRRQAIG, the growth estimate was below -0.25.

For the substance AYASTDMVPMSHTTLGEWKS, the growth estimate was below -0.25.

Regarding RSYACVHARAINVSVE, the growth estimate is below -0.25.

With SCVCFPCRTLGYG, the growth estimate was below -0.25.

Take VPEGVFRRAH: the growth estimate was below -0.25.

Turning to RLNSDILTVWYGKGIPATMN, the growth estimate is below -0.25.

In the case of LKAWRS, the growth estimate is below -0.25.

In the case of HWKPEVSASAPLGEVNDT, the growth estimate is below -0.25.

As for LVNEVEPFGLGLMSHGYGGV, the growth estimate was 0.0823.

For CAVKERRPLS, the growth estimate was below -0.25.

On to LWLQD, for which the growth estimate is -0.246.

In the case of YQC, the growth estimate was below -0.25.

In the case of IAAVKYLNRFK, the growth estimate is below -0.25.

Turning to CKSQAPRKLP, the growth estimate is below -0.25.

For the substance MFHPDLSSAR, the growth estimate is below -0.25.

Take RKLGL: the growth estimate was below -0.25.

TDGSSVVDILI: the growth estimate was below -0.25.

For LRSAANLMVPVIVYTQSWSK, the growth estimate is below -0.25.

On to SWNVHLGYPTAGN, for which the growth estimate was 2.27.

On to RRYLLRYIGTANGRGIVATC, for which the growth estimate is below -0.25.

In the case of WLTTEVDGER, the growth estimate is -0.243.

RGFIYVRSRSTSGTLRLGVR: the growth estimate was below -0.25.

As for WSASIVQTSALF, the growth estimate was below -0.25.

Regarding PLIFQGVRFCQSMVVSQRIE, the growth estimate is below -0.25.

As to QECSGPQVGSYQDGEYT, the growth estimate is below -0.25.

On to PLLGGRIGDLNGQRCDTHQT, for which the growth estimate is below -0.25.

Take RLGSAGSFLGLSNTHCASKR: the growth estimate was below -0.25.

Take SRFLG: the growth estimate was below -0.25.

On to RQLNHR, for which the growth estimate was below -0.25.

As for CHVRAFNFTLMCAAHRRTTD, the growth estimate was below -0.25.

In the case of RRRSISTRRGNSGATGAAHY, the growth estimate was below -0.25.

Turning to CNAQLRV, the growth estimate is below -0.25.

For the substance AKLKLTLQR, the growth estimate is below -0.25.

Take VPGGVRMIGQI: the growth estimate is below -0.25.

For WSQFVVLVSLPP, the growth estimate is below -0.25.

CINMVAGVATLSMPRPGPRV: the growth estimate is below -0.25.

RNRYLADELSDMTRG: the growth estimate is below -0.25.

Turning to ERSHGC, the growth estimate is below -0.25.

Consider GNQEAASIDNGTGYSEDIAR, for which the growth estimate is below -0.25.

For the substance IACGPEQFAWSASLKLAGPR, the growth estimate is below -0.25.

On to PRLDGGGISLYNIVWGAQAW, for which the growth estimate is below -0.25.

On to FVLGYLRAGLPAPTSSACDA, for which the growth estimate was below -0.25.

Regarding TRYNVLTTTR, the growth estimate is below -0.25.

Take FRSYIGVARRNGSPRRERRA: the growth estimate is below -0.25.

With LHDNMEESATLPIASERVQA, the growth estimate is below -0.25.

Consider HPRVNSEANCHRRWTEGSVG, for which the growth estimate is below -0.25.

Take VWVQGTVPRITVFNLFCAA: the growth estimate was below -0.25.

For GLGQCDRVVL, the growth estimate is below -0.25.

On to RLRSVGERP, for which the growth estimate is 0.182.

Regarding FVRSNGSSGWAHAQENGSLP, the growth estimate was below -0.25.

Turning to FSVIIDHKQNPLLASGGPQQ, the growth estimate was below -0.25.

Regarding VVRVAYEGFRTIVFRDSRNQ, the growth estimate is below -0.25.

In the case of DRISSLPYYVKLFVSHQAAG, the growth estimate was below -0.25.

Consider FRDSNKGSGPGVVHIIVSGG, for which the growth estimate is below -0.25.

Consider PKAILIPLFNV, for which the growth estimate was below -0.25.

As to RYATRVPA, the growth estimate is below -0.25.

In the case of KRSPVR, the growth estimate is below -0.25.

IKFRFPHLHKRLVRSLGTIV: the growth estimate was below -0.25.

As to WLGGSLKQTRSLMNEHVQKL, the growth estimate is below -0.25.

As for YMRRGTGHLQEP, the growth estimate is below -0.25.

Consider GHTCPRATSSKANLWQKDGT, for which the growth estimate is below -0.25.

As for TWLLVSARGEHLTEVEDLEC, the growth estimate was below -0.25.

On to TSTVRRYGDG, for which the growth estimate was below -0.25.

TRRRFRIYAPRFILTVRPTV: the growth estimate was below -0.25.

EHVDRDGGSATLHSDPV: the growth estimate was below -0.25.

With SSRGTALQEHR, the growth estimate is below -0.25.

For SQYTGGGSIPPTSTIAF, the growth estimate is below -0.25.

SPSGT: the growth estimate is below -0.25.

Turning to ELQCTSRYYFDCTRGKERAV, the growth estimate is below -0.25.

With SWPLRQSRCSSYG, the growth estimate was below -0.25.

As to FNGL, the growth estimate was below -0.25.

QYLVGG: the growth estimate was below -0.25.

QPVGTTGLASEDFLFLITRR: the growth estimate is below -0.25.

For SVTPPLARPRQL, the growth estimate was below -0.25.

For CRRHRVGVSETNCRLTQCIP, the growth estimate was below -0.25.

For NPELASLSLDLKRTSGRKRL, the growth estimate is below -0.25.

In the case of DIRIASVTIRLD, the growth estimate is below -0.25.

As to KCSHDV, the growth estimate is below -0.25.

As for FIGRKSRV, the growth estimate is below -0.25.

Take QSLTRGTLVPWDAGPRTGVQ: the growth estimate is below -0.25.

Turning to CARLSRLTHTTSWWSCRGNQ, the growth estimate is below -0.25.

IAFKVAYLGVNLTRRWYFGA: the growth estimate was below -0.25.

Regarding LSSLPQGKGRPGGDMNFAKR, the growth estimate is below -0.25.

As for LVLEYT, the growth estimate is below -0.25.

For the substance ATRRSRSCGSAPS, the growth estimate was below -0.25.

For SAGDTAWLNCSQEQMSSCVP, the growth estimate was below -0.25.

In the case of GGLKFCTLVP, the growth estimate was below -0.25.

Turning to VKCVRAPPVPCMRYPPQTPA, the growth estimate was below -0.25.
